Laboratory results taken from PMC12108377.
No constants are given. Whether binding was seen depends on the method and setting. Binding seen in cells or lysates may run through a third protein. Some results given as binding are weak or reduced against the parent protein; the word gives no strength. Each block holds one substance with its values, some of them ahead of it.

Amino acid sequences for entries named in this document (tags omitted). A change or cut given only in a name is not applied to a line headed by its entry. Chains listed by the source or under a name are the forms on record and can include a tag or linker. Residues count along the entry.
canine KIT wild type (O97799, residues 28-979): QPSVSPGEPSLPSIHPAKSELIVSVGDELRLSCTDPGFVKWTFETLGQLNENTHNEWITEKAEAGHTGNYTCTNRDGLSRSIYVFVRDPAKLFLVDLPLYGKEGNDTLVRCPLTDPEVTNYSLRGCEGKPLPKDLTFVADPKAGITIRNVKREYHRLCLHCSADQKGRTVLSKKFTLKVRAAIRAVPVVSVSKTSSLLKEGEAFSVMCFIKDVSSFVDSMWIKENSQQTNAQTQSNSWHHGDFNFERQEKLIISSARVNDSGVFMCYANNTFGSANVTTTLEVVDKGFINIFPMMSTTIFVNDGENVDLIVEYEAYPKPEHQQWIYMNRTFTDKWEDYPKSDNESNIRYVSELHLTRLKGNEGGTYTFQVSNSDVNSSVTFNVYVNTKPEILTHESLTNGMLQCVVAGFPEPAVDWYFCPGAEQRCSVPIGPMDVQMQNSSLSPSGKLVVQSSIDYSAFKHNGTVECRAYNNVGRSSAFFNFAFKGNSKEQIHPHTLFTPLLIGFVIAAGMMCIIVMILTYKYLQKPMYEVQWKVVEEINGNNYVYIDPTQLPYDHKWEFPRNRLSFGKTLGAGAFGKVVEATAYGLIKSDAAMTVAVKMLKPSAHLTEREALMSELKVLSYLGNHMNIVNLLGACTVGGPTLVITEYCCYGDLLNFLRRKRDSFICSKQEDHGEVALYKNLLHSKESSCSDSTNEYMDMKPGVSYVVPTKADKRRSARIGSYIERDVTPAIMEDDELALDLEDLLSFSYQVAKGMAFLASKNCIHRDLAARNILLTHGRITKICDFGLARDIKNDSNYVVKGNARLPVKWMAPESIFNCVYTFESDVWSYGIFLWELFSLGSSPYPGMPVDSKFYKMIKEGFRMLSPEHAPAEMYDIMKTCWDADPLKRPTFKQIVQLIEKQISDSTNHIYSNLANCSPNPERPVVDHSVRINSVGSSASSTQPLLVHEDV
canine KIT A434T mutant (O97799, form named): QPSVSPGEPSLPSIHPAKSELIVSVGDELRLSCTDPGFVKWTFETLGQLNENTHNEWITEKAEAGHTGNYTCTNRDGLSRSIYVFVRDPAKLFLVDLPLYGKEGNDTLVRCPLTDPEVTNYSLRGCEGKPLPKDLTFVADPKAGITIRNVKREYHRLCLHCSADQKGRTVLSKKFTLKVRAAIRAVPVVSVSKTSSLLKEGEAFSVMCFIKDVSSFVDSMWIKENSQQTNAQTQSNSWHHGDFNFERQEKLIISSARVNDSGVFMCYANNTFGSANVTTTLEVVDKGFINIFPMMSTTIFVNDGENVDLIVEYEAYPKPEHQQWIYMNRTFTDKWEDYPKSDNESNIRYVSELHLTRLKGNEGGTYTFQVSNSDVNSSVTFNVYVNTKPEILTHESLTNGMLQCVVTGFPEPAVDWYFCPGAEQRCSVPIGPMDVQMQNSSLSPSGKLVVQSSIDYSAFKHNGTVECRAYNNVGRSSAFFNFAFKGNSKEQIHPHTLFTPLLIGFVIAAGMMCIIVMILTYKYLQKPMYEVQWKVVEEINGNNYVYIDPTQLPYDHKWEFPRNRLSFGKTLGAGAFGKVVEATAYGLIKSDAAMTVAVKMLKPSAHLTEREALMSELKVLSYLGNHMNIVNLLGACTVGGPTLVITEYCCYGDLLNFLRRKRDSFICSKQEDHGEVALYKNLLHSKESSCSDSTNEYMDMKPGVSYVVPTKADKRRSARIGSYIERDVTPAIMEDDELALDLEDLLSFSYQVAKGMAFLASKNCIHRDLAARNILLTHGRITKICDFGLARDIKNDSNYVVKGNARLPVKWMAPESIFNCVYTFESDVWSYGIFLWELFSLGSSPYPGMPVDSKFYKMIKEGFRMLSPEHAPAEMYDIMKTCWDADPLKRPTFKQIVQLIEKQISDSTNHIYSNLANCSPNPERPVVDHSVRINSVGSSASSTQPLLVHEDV
canine KIT F436S mutant (O97799, form named): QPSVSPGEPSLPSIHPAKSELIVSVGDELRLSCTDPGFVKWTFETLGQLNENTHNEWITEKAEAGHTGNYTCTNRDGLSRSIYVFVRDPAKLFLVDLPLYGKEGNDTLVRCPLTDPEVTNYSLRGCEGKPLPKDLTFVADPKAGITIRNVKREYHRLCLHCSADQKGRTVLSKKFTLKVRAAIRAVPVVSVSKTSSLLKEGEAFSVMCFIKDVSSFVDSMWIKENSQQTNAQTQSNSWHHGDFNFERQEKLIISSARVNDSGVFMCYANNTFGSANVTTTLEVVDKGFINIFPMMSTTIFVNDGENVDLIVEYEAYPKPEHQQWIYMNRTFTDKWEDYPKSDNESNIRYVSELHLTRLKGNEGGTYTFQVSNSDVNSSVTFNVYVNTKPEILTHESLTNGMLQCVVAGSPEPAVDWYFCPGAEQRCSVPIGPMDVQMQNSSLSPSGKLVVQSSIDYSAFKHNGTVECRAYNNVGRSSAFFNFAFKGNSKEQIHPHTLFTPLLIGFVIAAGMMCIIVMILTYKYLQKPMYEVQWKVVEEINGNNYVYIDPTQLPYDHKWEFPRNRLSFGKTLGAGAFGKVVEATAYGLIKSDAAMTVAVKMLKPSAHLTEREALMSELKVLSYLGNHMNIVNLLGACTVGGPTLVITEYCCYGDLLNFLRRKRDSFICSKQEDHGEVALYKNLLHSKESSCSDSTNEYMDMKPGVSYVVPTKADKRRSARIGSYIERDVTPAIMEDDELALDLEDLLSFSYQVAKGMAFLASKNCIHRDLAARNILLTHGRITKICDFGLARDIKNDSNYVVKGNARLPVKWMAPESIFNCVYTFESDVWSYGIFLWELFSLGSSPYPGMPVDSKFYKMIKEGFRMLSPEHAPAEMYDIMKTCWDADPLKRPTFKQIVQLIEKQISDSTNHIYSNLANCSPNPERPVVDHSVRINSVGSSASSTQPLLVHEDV
canine KIT F436S/N508I co-mutant (O97799, form named): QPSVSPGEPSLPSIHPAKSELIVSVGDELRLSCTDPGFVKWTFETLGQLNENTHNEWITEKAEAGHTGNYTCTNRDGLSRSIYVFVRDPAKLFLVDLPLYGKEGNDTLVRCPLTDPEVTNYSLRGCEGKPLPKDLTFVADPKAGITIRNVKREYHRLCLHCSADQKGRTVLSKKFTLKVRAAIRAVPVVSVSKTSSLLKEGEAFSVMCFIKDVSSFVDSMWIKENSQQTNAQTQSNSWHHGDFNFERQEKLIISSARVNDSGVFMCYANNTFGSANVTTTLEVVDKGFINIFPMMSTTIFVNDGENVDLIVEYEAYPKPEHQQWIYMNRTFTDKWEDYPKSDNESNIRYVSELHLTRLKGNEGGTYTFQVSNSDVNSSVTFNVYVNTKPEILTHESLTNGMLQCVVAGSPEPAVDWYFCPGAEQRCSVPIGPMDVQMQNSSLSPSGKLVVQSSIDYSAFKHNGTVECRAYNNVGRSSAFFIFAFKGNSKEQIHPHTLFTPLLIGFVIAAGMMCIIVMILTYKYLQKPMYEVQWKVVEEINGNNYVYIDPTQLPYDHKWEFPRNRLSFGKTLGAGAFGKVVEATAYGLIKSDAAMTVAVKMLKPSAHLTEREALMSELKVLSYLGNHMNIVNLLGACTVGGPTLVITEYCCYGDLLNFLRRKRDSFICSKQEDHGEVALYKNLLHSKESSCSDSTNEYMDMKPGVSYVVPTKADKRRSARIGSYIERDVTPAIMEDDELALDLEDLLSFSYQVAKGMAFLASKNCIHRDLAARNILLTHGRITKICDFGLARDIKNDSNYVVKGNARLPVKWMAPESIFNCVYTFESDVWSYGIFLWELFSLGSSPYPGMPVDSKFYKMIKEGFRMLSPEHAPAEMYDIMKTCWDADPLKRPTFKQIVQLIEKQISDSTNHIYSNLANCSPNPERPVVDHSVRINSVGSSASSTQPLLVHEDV

Key:
Experiment in all cases: pull-down; Halo- and HA-tagged canine KIT co-transfected in AD-293 cells; 12 h serum starvation, with or without 100 ng/mL SCF for 30 min; lysate on Magne Halo-Tag beads overnight at 4 °C, washed with TBS with 0.05% IGEPAL CA-630; Western blot with anti-HA
[1] = biological target: canine KIT A434T mutant (canine) (UniProt O97799)
[2] = biological target: canine KIT F436S mutant (canine) (UniProt O97799)
[3] = biological target: canine KIT F436S/N508I co-mutant (canine) (UniProt O97799)
[4] = biological target: canine KIT wild type (canine) (UniProt O97799)

binding [1]: binds
Substance: canine KIT A434T mutant (from UniProt O97799 28-979) (receptor)

binding [2]: binds
Substance: canine KIT F436S mutant (from UniProt O97799 28-979) (receptor)

binding [3]: binds
Substance: canine KIT F436S/N508I co-mutant (from UniProt O97799 28-979) (receptor)

binding [4]: binds
Substance: canine KIT wild type (from UniProt O97799 28-979) (receptor)
